Reference: patent US7351732B2, “Cycloalkanedione derivatives, method for the production thereof and their pharmacological applications” (Schwarz Pharma S.L., priority 2002, dated 2008)

Molecular target: T1, 5-HT1A (Rattus norvegicus, UniProt P19327)
T1 sequence (P19327 1-422): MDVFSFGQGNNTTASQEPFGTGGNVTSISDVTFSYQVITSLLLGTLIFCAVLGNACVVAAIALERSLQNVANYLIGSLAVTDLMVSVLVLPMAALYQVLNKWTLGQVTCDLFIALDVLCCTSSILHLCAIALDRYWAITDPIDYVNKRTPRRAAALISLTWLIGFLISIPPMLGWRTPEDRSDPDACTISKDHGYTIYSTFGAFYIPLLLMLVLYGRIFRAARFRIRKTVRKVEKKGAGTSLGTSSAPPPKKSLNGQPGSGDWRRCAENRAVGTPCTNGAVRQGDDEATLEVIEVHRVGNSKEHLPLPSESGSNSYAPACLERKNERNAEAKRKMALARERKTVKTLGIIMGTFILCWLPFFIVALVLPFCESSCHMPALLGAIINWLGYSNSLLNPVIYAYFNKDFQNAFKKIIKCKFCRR
Assay: [35S]-GTPγS fixation test to coronal sections of rat brain
Format: biochemical
Set-up: fixation test of [^35S]-GTPγS to coronal sections of rat brain; from tissue; host or cells: coronal sections of rat brain
Details: 10 μM
Experimental: The in vitro agonist character of the new compounds was also evaluated in some cases by the fixation test of [^35S]-GTPγS to coronal sections of rat brain.

**Q.** `O=C1C2CCCN2C(=O)N1CCCCNCC1CCc2ccccc2O1` (racemic) [Compound 1, (±)-2-[4-[(Chroman-2-yl)methylamine]butyl]-1,3-dioxoperhydropyrrolo[1,2-c]imidazol] was tested. Which “[35S]-GTPγS fixation compared with 8-OH-DPAT” value did it give?
**A.** especially similar to those obtained with the 5-HT1A, 8-OH-DPAT agonist prototype
